Data set [1] deals with dCREB2-b isoform lacking alternatively spliced exons 2, 4 and 6 relative to dCREB2-a (Drosophila melanogaster). In words: EMSA. The conditions noted are these: purified recombinant protein, label: 32P. For orientation: In EMSA bound probe runs differently from free probe, usually more slowly.
The test system is the same in data set [2]. In words: binding assay. The conditions noted are these: DNA-binding expression screen of Drosophila head cDNA library on filters; purified recombinant protein; label: 32P.
Data set [3] shares this test system. As to the kind of experiment: competition with a labelled probe. To be noted: unlabeled nonspecific competitor; higher affinity for CRE than nonspecific DNA; purified recombinant protein.

Consider 7 sequences from patent US6051559.

The exact form of at least one protein or probe is not confirmed. For some of these results: A weaker result is weaker than the reference pair of the same experiment.

With “AAATGAATTAACGGAAATGAATTAACGGAAATGAATTAACGG (double strand) [3xmCRE mutant]”, the binding result in data set [1] (lower but detectable affinity, variant of 3xCRE wild-type) is “binds more weakly”.

For the sequence “AAATGACGTAACGGAAATGACGTAACGGAAATGACGTAACG (double strand) [3xCRE wild-type]”, the binding result in data set [1] (4% gel, Tris-glycine, 3 mM MgCl2) is reported as “binds”.

Take “CGTCTAGATCTATGACTGAATATGACGTAATATGACGTAATGGTACCAGATCTGGCC (double strand) [3xCRE screening probe]”: in data set [2], the binding result is “binds”.

Turning to “CTAGAGCTTGCAAGCATGCTTGCAAGCAAGCATGCTTGCAAGCATGCTTGCAAGC (double strand) [Nonspecific competitor #3]”, in data set [3], the binding result is “binds more weakly”.

Turning to “CTCTAGAGCGTACGCAAGCGTACGCAAGCGTACG (double strand) [Nonspecific competitor #4]”, the binding result in data set [3] is reported as “binds more weakly”.

As for “TCGACCCACAGTTTCGGGTTTTCGAGCAAGTCTGCTAGTGTCTGATGAGGCCGAAAGGCCGAAACGCGAAGCCGTATTGCACCACGCTCATCGAGAAGGC (double strand) [Nonspecific competitor #2]”, the binding result in data set [3] is recorded as “binds more weakly”.

Regarding “TGCACGGGTTTTCGACGTTCACTGGTAGTGTCTGATGAGGCCGAAAGGCCGAAACGCGATGCCCATAACCACCACGCTCAG (double strand) [Nonspecific competitor #1]”, the binding result in data set [3] is recorded as “binds more weakly”.
